Results reported in paper PMC5732302.
No constants are given. Whether binding was seen depends on the method and setting. Sequences can lack the tags named with a protein.

Target: T1, She1-HALO labelled with HaloTag-TMR ligand (She1-TMR) (budding yeast) (UniProt P38200)
T1 sequence (chain, TMR (HaloTag-TMR ligand) on the HaloTag): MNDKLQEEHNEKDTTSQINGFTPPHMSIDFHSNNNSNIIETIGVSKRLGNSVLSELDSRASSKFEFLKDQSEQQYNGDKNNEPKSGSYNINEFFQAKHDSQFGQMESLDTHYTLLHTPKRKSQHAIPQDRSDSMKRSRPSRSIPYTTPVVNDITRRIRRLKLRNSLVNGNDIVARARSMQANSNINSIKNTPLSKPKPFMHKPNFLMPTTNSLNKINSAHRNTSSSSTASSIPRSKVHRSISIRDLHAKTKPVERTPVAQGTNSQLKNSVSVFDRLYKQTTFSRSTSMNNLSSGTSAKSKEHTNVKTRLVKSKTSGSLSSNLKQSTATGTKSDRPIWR
Assay: microtubule recruitment assay (TIRF microscopy); undigested (+E-hook) microtubules with 40 nM She1 and 45 nM GFP–dynein331 ^∆MTBD; recruitment of the GFP protein by microtubule-bound She1; both purified

GFP–dynein331 ^∆MTBD, dynein motor domain fragment lacking its MTBD (budding yeast) (domain or fragment)
binding: no binding (tested: 40 nM She1, 45 nM dynein mutant)
